# Library compounds against nucleic acid targets

Data from the ROBIN nucleic acid binder screens, doi:10.1002/anie.202211358.

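Each compound is printed as two spots on a slide made to bind it covalently, so it has no test concentration; the read-out is fluorescence of the bound, labelled oligonucleotide. For the PreQ1, TPP and SAM-II riboswitches the laboratory earlier reported (doi:10.1038/s41467-019-09493-3) 1 µM RNA, 2 h, and a rule that included a mean Z-score above 3 (spot signal-to-noise against the whole library), a score well above that on a control array, and duplicate spots agreeing (coefficient of variation under 100). The data file gives only the calls; its cut-offs may differ, and compounds hitting several targets are kept. A missing hit is not proof of no binding, and a hit is not a measured affinity.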
Key: 1 = hit, 0 = tested without a hit.
The compounds are a random part of those screened.
A target missing from an entry has no call listed here.
A dash means that no call is listed here.

Targets, with sequences 5′ to 3′:
SAM-II: SAM-II riboswitch RNA pseudoknot, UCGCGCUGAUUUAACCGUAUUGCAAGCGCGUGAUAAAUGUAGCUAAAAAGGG. About 21,000 compounds screened, about 200 hits.
TPP: TPP riboswitch RNA three-way junction, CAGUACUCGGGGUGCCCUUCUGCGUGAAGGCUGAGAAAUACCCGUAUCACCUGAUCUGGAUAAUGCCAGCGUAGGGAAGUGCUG. About 24,000 compounds screened, about 160 hits.
PreQ1: PreQ1 riboswitch RNA pseudoknot, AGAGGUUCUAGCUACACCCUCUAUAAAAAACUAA. From B. subtilis. About 24,000 compounds screened, about 170 hits.

SMILES,SAM-II,TPP,PreQ1
COc1cccc([C@@H](C)NCc2cn(CCN3CCSCC3)nc2C)c1,0,0,0
Cc1ccccc1OCCCn1c(CO)nc2ccccc21,-,0,0
Cc1c(C)c2c(c(C)c1OCc1ccccc1)C(CO)C(C)(C)O2 (centres unmarked),0,0,0
COc1ccc(C2(CCNC(C)c3ccccc3)CCOC(C)(C)C2)cc1 (centres unmarked),0,0,0
Cc1cccc(=O)n1CCC(=O)N1CCNC(c2ccccc2)C1 (centres unmarked),0,0,0
COCCN1C[C@@H]2CN(c3nc(CO)cs3)C[C@]2(C(=O)O)C1,0,0,0
NC1=C(c2nc3ccccc3s2)C(=O)CN1c1ccccc1Cl,-,0,0
CCOC(=O)c1ccc(Nc2nc3ccccc3nc2-n2nc(C)cc2C)cc1,0,0,0
Cc1ncsc1CCC(=O)N(Cc1ccccc1)[C@@H]1CCCC[C@H]1O,0,0,0
Cc1cc(NCc2cccnc2)c2ncnn2n1,0,0,0
Cc1ccsc1CCNc1c(-c2ccc(C(C)C)cc2)c(=O)c1=O,-,0,0
Cc1ccc2c(c1)c1c(n2CC(O)Cn2nc(C)c(Br)c2C)C(=O)CCC1 (centres unmarked),0,0,0
COc1ccc(F)c(-c2nccc(N3CCC(O)C3)n2)c1 (centres unmarked),0,0,0
Cc1n[nH]c(C)c1Nc1nc(-c2ccccc2)c(CC(=O)O)s1,0,0,0
COc1cc(CNCCCn2ccnc2)cc(Cl)c1OC,0,0,0
Cc1nc(CCN)cc(N(C)Cc2nc3ccc(F)cc3[nH]2)n1,0,0,0
CNc1nc(N2C[C@H]3CN(CCO)C[C@@]3(C(=O)O)C2)nc2c1CCC2,0,0,0
Cc1cc(Cl)ccc1NC1=NS(=O)(=O)c2ccccc21,0,0,0
COc1ccc(-c2noc(-c3nnn(-c4cc(C)ccc4C)c3N)n2)cc1,-,0,0
Cc1cc(NC(=O)c2ccccc2)nc(C)n1,0,0,0
Cl.c1ccc(CNCCC(Cc2ccccc2)c2ccc3c(c2)OCO3)cc1 (centres unmarked),0,0,0
CC1=NN(CC(=O)N2CCC3(CCNCC3CO)CC2)CC1 (centres unmarked),0,0,0
Cc1ccc(C)c(NCC(O)Cn2c(C)c(C)c3ccccc32)c1 (centres unmarked),0,0,0
CCC1c2cccn2CCN1C(=O)c1cc(CN2CCC(O)CC2)on1 (centres unmarked),0,0,0
Cc1c(-c2ccc(F)cc2)[nH]c2ccc(CNc3ccnc(N)n3)cc12,0,0,0
Cn1ncnc1CCNCc1cc(O)c2cc(F)ccc2n1,0,0,0
Nc1nonc1C(=O)N1CCN(C(=O)Nc2ccccc2F)CC1,-,0,0
CSCC[C@@H](CO)Nc1ncc(C)c(N(C)C)n1,0,0,0
CCC(NC1CCN(C(=O)c2ccccc2)CC1)c1cccs1 (centres unmarked),0,0,0
Cc1ncc2c(c1CNC(=O)CCc1c(C)nn(C)c1C)CCNC2,0,0,0
O=C1CCC[C@@H]2[C@H]3CCC[N+]4([O-])CCC[C@@H](CN12)[C@@H]34 (some centres unmarked),0,0,0
Cc1ccc(Nc2nc3ccccc3c3nncn23)cc1F,0,0,0
COc1cccc2c1OCC(C(=O)NCCc1noc(CO)n1)C2 (centres unmarked),0,0,0
Clc1ccc2nc(-c3ccsc3)c(Nc3ccccc3)n2c1,0,0,0
COc1cc(C2C(C#N)=C(N)OC(C)=C2C(C)=O)cc(OC)c1OC (centres unmarked),0,0,0
CCCCNc1nc(-c2ccccc2)c2c(c1C#N)CC(C)(C)OC2,0,0,0
c1coc(-c2nc3ccccn3c2Nc2ccc3c(c2)OCCO3)c1,0,0,0
CCc1ccc(C(=O)N(Cc2ccc(F)cc2)C(CC)CO)s1 (centres unmarked),0,0,0
COc1ccc(-c2oc3c(CC=C(C)C)c(O)cc(O)c3c(=O)c2O)cc1,0,0,0
CCOc1cc(CNc2cccc3nc(C)[nH]c23)ccc1OC,0,0,0
Nc1ccc(-c2n[nH]c(-c3cccc(Cl)c3)n2)cc1,0,0,0
COc1ccc(C(=O)N(CC=Cc2ccccc2)CCO)c(OC)n1,0,0,0
Cc1cc(C)n(-c2nc(C)c(C(=O)N3CCN(CCO)CC3)s2)n1,-,0,0
Cc1cc(-c2n[nH]c3c2C(c2ccc(F)cc2)C(C#N)=C(N)O3)c(C)s1 (centres unmarked),0,0,0
CC1=C(c2ccccc2)S(=O)(=O)N=C1NCCCN1CC(C)CC(C)C1 (centres unmarked),-,0,0
CCn1c(C2CCN(C(=O)c3cc(C)c4nc(N)sc4c3)CC2)n[nH]c1=O,0,0,0
CCC(O)Cn1nc(CC(N)=O)nc1-c1ccccc1Oc1ccccc1 (centres unmarked),0,0,0
COC(=O)c1cccc(Nc2c(-c3ccc(OC)cc3)nc3cnccn23)c1,-,0,0
O=C(O)c1ccc(N2CCCCC2)cc1O,0,0,0

The first 3 entries again:

{"smiles": "COc1cccc([C@@H](C)NCc2cn(CCN3CCSCC3)nc2C)c1", "SAM-II": "0", "TPP": "0", "PreQ1": "0"}
{"smiles": "Cc1ccccc1OCCCn1c(CO)nc2ccccc21", "TPP": "0", "PreQ1": "0"}
{"smiles": "Cc1c(C)c2c(c(C)c1OCc1ccccc1)C(CO)C(C)(C)O2", "stereo": "centres unmarked", "SAM-II": "0", "TPP": "0", "PreQ1": "0"}